In patent US7256006B2, “Method for determining the influence of a test substance on the heart activity of a vertebrate” (Multi Channel Systems MCS GmbH, priority 2003, dated 2007):

Tested on: ventricular myocytes from chicken embryos
Test: extracellular MEA field potential (FPdur) measurement on spontaneously beating heart cells
Type: cell-based
Method: The heart muscle cells were obtained by trypsin digestion of the isolated ventricle of chicken embryos (10-12 days after fertilization). The heart was freed of blood vessels and atria. The cells were cultured in MEM medium supplemented with 10% fetal calf serum (FCS). One to two days before the measurement, the medium was replaced by standard Tyrode solution.
The standard Tyrode solution was then replaced by a Tyrode solution with 5 μM of a test substance and the change in FPdur was determined. Thereafter, the concentration of the test substance was increased in logarithmic steps. A measurement was now taken every 10 minutes.
In measurements with quinidine, 0.5% DMSO was added to the cell Tyrode since quinidine is not water-soluble. The control experiment was also carried out with DMSO here.
In these qualitative evaluations, i.e. comparison of data from the respective control experiment and the data derived from addition of the QT-modifying substance, possible changes in the heart rate were taken into account.
For the normalized case, the FPdur value was divided by the square root of the time span (in seconds) between two action potentials.

## Cc1cccc(CCN2CCC(C(=O)c3ccc(NS(C)(=O)=O)cc3)CC2)n1.Cl.Cl [E4031]
At higher concentrations
  spontaneous contractions of the cells: no longer have any spontaneous contractions
Summary of substances tested by the inventors
  effect on the QT interval: prolongating effect
